Results are given in words; binding and its absence hold for the method and conditions named. Some binding calls cover weakened binding; strength is not graded here.
Legend:
murine D6 (murine) [1] = molecular target: murine D6 (murine) (UniProt O08707); experiment: competition with 125I-murine MIP-1α on CHO cells stably expressing murine D6
human D6 (human) = human D6 (human) (UniProt O00590); experiment: displacement of 125I-murine MIP-1α on cells expressing human D6
murine D6 (murine) [2] = molecular target: murine D6 (murine) (UniProt O08707); experiment: binding assays on CHO cells expressing murine D6

Sequences of proteins named here, by UniProt entry; tags and fusion partners are left off. A change or cut given only in a name is not applied to a line headed by its entry. Residues count along the entry.
UniProt O08707: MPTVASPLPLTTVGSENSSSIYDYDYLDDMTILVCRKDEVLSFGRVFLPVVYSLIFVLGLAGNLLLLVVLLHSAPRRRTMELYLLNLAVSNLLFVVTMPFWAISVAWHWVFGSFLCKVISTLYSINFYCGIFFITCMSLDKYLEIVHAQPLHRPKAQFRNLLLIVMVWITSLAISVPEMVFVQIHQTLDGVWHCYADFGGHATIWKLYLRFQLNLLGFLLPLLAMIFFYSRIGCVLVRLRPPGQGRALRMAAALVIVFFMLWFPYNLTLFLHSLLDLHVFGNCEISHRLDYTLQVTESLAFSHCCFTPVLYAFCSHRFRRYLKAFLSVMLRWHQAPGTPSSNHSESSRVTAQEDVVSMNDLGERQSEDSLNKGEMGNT
UniProt O00590: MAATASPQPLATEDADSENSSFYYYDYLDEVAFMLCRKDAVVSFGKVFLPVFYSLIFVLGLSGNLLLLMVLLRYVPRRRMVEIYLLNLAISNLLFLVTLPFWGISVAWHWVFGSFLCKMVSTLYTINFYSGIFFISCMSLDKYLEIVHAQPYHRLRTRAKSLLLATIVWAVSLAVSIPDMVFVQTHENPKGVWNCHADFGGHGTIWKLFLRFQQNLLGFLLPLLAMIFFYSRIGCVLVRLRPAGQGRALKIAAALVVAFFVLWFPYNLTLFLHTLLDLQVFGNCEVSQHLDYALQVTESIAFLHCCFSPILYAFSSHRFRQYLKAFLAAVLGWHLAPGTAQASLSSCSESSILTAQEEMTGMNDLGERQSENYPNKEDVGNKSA
UniProt P10148, residues 24-148: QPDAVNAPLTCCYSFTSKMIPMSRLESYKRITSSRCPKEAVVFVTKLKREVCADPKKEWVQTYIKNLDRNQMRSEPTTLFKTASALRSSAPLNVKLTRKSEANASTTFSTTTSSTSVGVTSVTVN

Measured: binding

murine JE (from UniProt P10148 24-148) (ligand)
binds: all assays above

Reference: patent publication US20030162943A1
